# Hit rate of the full screen: of about 1,300 compounds, about 420 (32%) were called active. This list was built around the results that the source calls inconclusive (neither active nor inactive); the mix of calls is not that of the screen. Calls follow the shape of the dose curve; as a rule, active = well fitted inhibition curve with a large enough effect; inconclusive = small, poorly fitted or top-dose-only effect; inactive = no such curve, though single readings can be large or run the other way. Where the call is inconclusive, the potency comes from a doubtful curve fit.
# Molecular target: C-terminal-binding protein 1 (Homo sapiens) (UniProt Q13363)
# Experiment: qHTS for Inhibitors of the Phosphatase Activity of Eya2: Carboxyl-terminal binding protein (CtBP) Counterscreen for Cherry-picked Compounds; also: nearly all actives have a fitted effect of over 65% in size
# Details: purified protein-protein binding, AlphaScreen, 3 h; activity change, negative = inhibition: at 46.1 µM (top of the series)
# How it was run: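 AlphaScreen using 25 nM GST-E1A with 25 nM CtBP-6xHIS; compounds at 2.5 nM–46 uM final, 2 h at room temperature, then donor/acceptor beads (20 ug/mL) for 1 h in the dark. Signal normalized to E1A peptide inhibitor (maximum inhibition) and DMSO.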
# % is scaled to controls: 0 for no effect and ±100 for the full control effect; potency is read from the fitted curve at half-maximal effect.
Structure (SMILES),"activity change, negative = inhibition",Potency
O=C(CN1C(=O)c2ccccc2C1=O)Nc1nc(-c2cccc([N+](=O)[O-])c2)cs1,inactive: 2.24%,–
NC(=O)C1CCN(CC(=O)Nc2ccc3c(c2)OCO3)CC1,inactive: 56.5%,–
CCn1c(=S)[nH]c2sc3c(c2c1=O)CCCC3,–,"inconclusive: 16.9 µM [inhibitor, single point]"
COC(=O)CSc1nc2nc(-c3cccs3)cc(C(F)(F)F)c2c(=O)[nH]1,–,"inconclusive: 30.1 µM [inhibitor, single point]"
Cc1ccc(NC(=O)c2ccc3[nH]c(=O)c(=O)[nH]c3c2)nc1,–,active: 6.75 µM
COc1cc(SC)ccc1C(=O)NCCc1c[nH]c2ccccc12,–,"inconclusive: 16.9 µM [inhibitor, single point]"
CC(C)OCCCNC(=O)c1ccccc1NC(=O)C1=CSCCO1,inactive: -4.28%,–
COc1ccc2[nH]c3c(c2c1)CCN1C(=O)N([C@@H](C)C(=O)NCCc2ccc(F)cc2)C(=O)[C@]31C,–,"inconclusive: 15.1 µM [inhibitor, single point]"
O=C(COC(=O)c1cc(S(=O)(=O)N2CCOCC2)ccc1O)Nc1ccc2c(c1)OCO2,inactive: -29.9%,–
CCOc1cc(/C=C2\C(=N)N3N=C(CC)SC3=NC2=O)ccc1OCCOc1ccc(NC(C)=O)cc1,–,active: 3.79 µM
O=C(Oc1ccc(C(=S)N2CCOCC2)cc1)c1ccccc1[N+](=O)[O-],–,"inconclusive: 16.9 µM [inhibitor, single point]"
O=C(c1ccc2c(=O)n3c(nc2c1)CCCCC3)N1CCN(c2cccc(Cl)c2)CC1,–,active: 16.9 µM
CC1(CCc2ccc3c(c2)OCO3)NCCc2c1[nH]c1ccccc21 (stereo not given),–,"inconclusive: 19 µM [inhibitor, partial curve]"
O=c1nc2c(O)cccn2c2c1c(=O)[nH]c1ccccc12,–,active: 3.79 µM
COc1ccc(S(=O)(=O)c2c(O)c3ccc(C(=O)Nc4ccc(F)cc4)cc3[nH]c2=O)cc1,–,"inconclusive: 3.79 µM [inhibitor, partial curve]"
Cc1cnc2c(C)ccc(C)c2c1/C=C/c1ccc(N(C)C)cc1,–,"inconclusive: 9.53 µM [inhibitor, partial curve]"
Cc1cccc(C2c3[nH]c4ccccc4c3CCN2Cc2cccn2-c2ncccn2)c1 (stereo not given),–,"inconclusive: 16.9 µM [inhibitor, single point]"
COc1ccc(F)cc1-c1cc(NC=O)c2ncc(-c3cccc(C(F)(F)F)c3)n2c1,inactive: -11.4%,–
O=C(NCCCO)c1ccc2nc(-c3ccco3)c(-c3ccco3)nc2c1,–,active: 5.36 µM
Cc1ncc(CO)c2cc(C(=O)Nc3cccc(F)c3)c(=Nc3cccc(C(N)=O)c3)oc12,–,"inconclusive: 4.78 µM [inhibitor, full curve]"

# Whole records, looked up by structure. Order of values: activity change, negative = inhibition	Potency
# O=C(NCCCO)c1ccc2nc(-c3ccco3)c(-c3ccco3)nc2c1 reads –	active: 5.36 µM
# COc1cc(SC)ccc1C(=O)NCCc1c[nH]c2ccccc12 reads –	inconclusive: 16.9 µM [inhibitor, single point]
